Measurements taken from patent US20220411531A1 (SUMGEN MAB BEIJING BIOTECH, published 2022).
Positions count from the first letter of the chain named. Results are given in words; binding and its absence hold for the method and conditions named. Some results given as binding are weak or reduced against the parent protein; the word gives no strength.

By UniProt entry, the sequences of proteins in these tests, tags left out. Where a name states a change or a piece, a line headed by the entry shows the natural chain unless it says otherwise. Chains listed by the source or under a name are the forms on record and can include a tag or linker.
AXL-His (Sino Biological Inc., 6x His labels, molecular weight 47.5 Kda) (P30530, form named): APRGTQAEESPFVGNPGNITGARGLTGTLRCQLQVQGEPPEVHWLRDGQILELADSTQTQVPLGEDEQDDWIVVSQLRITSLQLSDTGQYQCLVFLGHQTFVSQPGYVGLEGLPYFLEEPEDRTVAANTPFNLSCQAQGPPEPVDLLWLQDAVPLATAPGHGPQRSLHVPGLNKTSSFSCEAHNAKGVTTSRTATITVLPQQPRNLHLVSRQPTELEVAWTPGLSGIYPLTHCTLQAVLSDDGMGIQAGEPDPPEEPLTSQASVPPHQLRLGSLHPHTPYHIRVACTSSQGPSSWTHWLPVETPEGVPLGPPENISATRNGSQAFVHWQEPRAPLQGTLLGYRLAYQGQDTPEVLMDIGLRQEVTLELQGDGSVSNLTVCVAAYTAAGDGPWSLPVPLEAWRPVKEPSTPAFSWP

Key:
[1] = biological target: AXL-His (Sino Biological Inc., 6x His labels, molecular weight 47.5 Kda) (UniProt P30530); experiment: ELISA, AXL-His coated at 1 µg/ml, OD450 [panel A]
[2] = biological target: AXL-His (Sino Biological Inc., 6x His labels, molecular weight 47.5 Kda) (UniProt P30530); experiment: specificity ELISA, AXL-His coated at 1 ug/ml
[3] = biological target: AXL-His (Sino Biological Inc., 6x His labels, molecular weight 47.5 Kda) (UniProt P30530); experiment: ELISA, AXL-His coated at 1 ug/ml
[4] = biological target: AXL-His (Sino Biological Inc., 6x His labels, molecular weight 47.5 Kda) (UniProt P30530); experiment: ELISA, AXL-His coated at 1 µg/ml, anti-human IgG Fab-HRP, OD450
[5] = biological target: AXL on the surfaces of human tumour cells (A549, MDA-MB-231, 786-O) (human) (UniProt P30530); experiment: flow cytometry on MDA-MB-231 cells, PE anti-human IgG
[6] = biological target: AXL-His (Sino Biological Inc., 6x His labels, molecular weight 47.5 Kda) (UniProt P30530); experiment: ELISA, AXL-His coated at 1 µg/ml, OD450 [panel B]
[7] = biological target: AXL on the surfaces of human tumour cells (A549, MDA-MB-231, 786-O) (human) (UniProt P30530); experiment: flow cytometry on MDA-MB-231 and 786-O cells
[8] = biological target: AXL on the surfaces of human tumour cells (A549, MDA-MB-231, 786-O) (human) (UniProt P30530); experiment: flow cytometry on 786-O cells, PE anti-human IgG

Measured: binding

B1: antibody 6G12M11 (antibody, human IgG1, kappa, V domains shown)
VH: QVQLVQSGPGLVKPSQSLSLTCAVTGFSISSGYYWNWIRQFPGQKLEWMGYRSYDGSNNYNPSLKNRISITRDTSKNQFFLKLNSVTSEDTATYYCARGWLLHYTMDYWGQGTTVTVSS
VL: EIVMTQSPSSVSVTLGQSASISCRSSRSLLHSNGFTYLYWYLQKPGQSPQLLIYQMSNLASGVPDRFSGSGSGTDFTLKISRVEAEDVGVYYCGQNLELPLTFGGGTKLEIKR
binds: [1] | [2] | [3] | [4]

B2: antibody 6G12M31 (antibody, V domains shown)
VH: B1 VH with A23S, N61D
VL: DIVMTQSPSSVSVTLGQSASISCRSSRSLLHSNGFTYLYWYLQKPGQSPQLLIYQMSNLASGVPDRFSGSGSGTDFTLKISRVEAEDVGVYYCGQNLELPLTFGGGTKLEIK
not listed: [1] | [3]
binds: all other assays above

B3: antibody 6G12M41 (antibody, V domains shown)
VH: B1 VH with A23S, N61G
VL: B2 VL
binds: [2] | [6] | [4]

B4: antibody 6G12M21 (antibody, human IgG1, kappa, V domains shown)
VH: B1 VH with A23S
VL: B1 VL with E1D
binds: [1] | [2] | [6] | [3] | [4]
